Here are results for two molecules from patent publication US20130225503A1, “TEX14 PEPTIDES AS NOVEL ANTITUMOR AGENTS” (Baylor Licnensing Group, priority 2009, published 2013).

Results are given in words; binding and its absence hold for the method and conditions named. Some entries that bind do so weakly or less than the wild type.

Assay [1] concerns the target T1, 80-amino-acid fragment of mouse CEP55 that contains the hinge region (C1) (mouse) (UniProt Q8BT07).
T1 sequence (looked up): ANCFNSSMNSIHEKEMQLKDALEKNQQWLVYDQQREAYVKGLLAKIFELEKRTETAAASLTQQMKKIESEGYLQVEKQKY
The experiment in a line: figure legend: yeast two-hybrid.

In assay [2] the target is T2, full-length mouse TEX14 (mouse, UniProt Q7M6U3 1-1450).
T2 construct: whole, on cells; In the yeast two-hybrid assay it stood as a fusion with a GAL4 domain (pGBKT7 bait or pGADT7 prey vector)
T2 sequence (looked up): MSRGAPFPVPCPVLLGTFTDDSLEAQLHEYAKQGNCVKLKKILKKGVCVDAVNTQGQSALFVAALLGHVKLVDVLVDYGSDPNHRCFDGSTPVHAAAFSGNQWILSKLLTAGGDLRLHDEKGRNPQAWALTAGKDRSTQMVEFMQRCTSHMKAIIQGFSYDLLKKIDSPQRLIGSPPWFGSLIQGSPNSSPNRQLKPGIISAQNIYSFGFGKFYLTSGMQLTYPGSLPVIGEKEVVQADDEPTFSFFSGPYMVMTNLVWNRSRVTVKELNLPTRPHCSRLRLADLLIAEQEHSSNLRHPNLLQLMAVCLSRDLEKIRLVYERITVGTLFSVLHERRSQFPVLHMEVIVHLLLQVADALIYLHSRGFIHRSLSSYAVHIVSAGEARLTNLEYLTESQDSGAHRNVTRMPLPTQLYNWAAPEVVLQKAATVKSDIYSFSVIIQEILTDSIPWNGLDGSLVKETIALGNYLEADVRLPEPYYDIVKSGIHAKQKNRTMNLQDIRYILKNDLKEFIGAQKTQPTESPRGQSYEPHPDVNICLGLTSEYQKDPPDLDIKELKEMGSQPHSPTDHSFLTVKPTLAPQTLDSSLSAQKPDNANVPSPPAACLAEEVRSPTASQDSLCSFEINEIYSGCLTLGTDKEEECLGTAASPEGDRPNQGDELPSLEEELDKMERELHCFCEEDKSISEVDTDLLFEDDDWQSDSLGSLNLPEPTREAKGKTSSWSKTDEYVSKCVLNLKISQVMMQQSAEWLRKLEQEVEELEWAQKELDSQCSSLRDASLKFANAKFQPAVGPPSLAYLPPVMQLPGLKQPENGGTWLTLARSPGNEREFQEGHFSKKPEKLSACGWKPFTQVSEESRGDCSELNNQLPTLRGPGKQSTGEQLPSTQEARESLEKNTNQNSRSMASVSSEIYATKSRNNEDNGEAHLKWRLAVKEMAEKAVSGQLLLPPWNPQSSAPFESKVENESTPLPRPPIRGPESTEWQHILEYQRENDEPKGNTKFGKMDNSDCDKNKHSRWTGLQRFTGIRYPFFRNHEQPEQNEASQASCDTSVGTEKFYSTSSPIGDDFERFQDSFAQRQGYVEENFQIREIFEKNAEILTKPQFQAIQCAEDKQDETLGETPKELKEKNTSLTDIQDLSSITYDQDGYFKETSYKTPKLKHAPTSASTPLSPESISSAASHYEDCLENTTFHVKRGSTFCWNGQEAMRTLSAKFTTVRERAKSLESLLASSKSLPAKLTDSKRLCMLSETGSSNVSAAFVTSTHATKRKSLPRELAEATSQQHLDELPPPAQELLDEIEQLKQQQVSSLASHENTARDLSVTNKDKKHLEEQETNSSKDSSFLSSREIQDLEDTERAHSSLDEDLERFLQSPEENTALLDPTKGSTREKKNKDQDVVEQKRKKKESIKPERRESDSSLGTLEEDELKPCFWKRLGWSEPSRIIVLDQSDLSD
In words: yeast two-hybrid.

Assay [3] has as its target T3, long C-terminal domain of mouse TEX14 (T3) (mouse) (UniProt Q7M6U3).
T3 sequence (looked up): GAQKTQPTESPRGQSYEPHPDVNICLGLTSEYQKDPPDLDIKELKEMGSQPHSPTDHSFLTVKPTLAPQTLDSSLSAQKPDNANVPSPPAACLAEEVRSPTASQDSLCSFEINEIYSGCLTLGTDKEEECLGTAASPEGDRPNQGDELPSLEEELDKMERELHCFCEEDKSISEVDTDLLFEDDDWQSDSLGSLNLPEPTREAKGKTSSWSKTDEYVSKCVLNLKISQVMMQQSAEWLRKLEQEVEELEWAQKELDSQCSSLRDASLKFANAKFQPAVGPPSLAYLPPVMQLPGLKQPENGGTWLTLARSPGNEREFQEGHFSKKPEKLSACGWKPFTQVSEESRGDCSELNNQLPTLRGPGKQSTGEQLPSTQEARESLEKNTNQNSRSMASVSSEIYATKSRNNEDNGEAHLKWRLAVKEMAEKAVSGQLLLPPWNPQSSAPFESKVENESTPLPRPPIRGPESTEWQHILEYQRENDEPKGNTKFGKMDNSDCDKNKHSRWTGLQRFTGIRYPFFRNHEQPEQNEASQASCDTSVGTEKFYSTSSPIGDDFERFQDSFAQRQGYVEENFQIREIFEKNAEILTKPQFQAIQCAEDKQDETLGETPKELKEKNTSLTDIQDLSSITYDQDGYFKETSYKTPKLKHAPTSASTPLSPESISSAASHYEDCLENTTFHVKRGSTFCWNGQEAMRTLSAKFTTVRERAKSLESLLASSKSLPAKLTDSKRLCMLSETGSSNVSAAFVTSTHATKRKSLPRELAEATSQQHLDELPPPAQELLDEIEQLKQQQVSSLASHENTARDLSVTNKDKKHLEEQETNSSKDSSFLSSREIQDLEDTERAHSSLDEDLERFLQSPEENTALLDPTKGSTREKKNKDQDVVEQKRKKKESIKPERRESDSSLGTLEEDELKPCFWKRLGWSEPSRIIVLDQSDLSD
In words: yeast two-hybrid.

For assay [4], the target named is T4, mouse TEX14 amino acids 756 to 815, GPPX3Y-containing fragment (T4) (mouse) (UniProt Q7M6U3).
T4 sequence (looked up): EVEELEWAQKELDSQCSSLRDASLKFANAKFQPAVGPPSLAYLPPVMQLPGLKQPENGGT
In words: yeast two-hybrid.

B1: mouse TEX14 amino acids 756 to 815, GPPX3Y-containing fragment (T4) (peptide, UniProt Q7M6U3 756-815, looked up)
chain: EVEELEWAQKELDSQCSSLRDASLKFANAKFQPAVGPPSLAYLPPVMQLPGLKQPENGGT
notes: range 756-815; Yeast two-hybrid GAL4 fusion; also called TEX14-T4
With B1, the binding result in assay [1] is given as “binds”.

B2: 80-amino-acid fragment of mouse CEP55 that contains the hinge region (C1) (protein, UniProt Q8BT07 157-236, looked up)
chain: ANCFNSSMNSIHEKEMQLKDALEKNQQWLVYDQQREAYVKGLLAKIFELEKRTETAAASLTQQMKKIESEGYLQVEKQKY
On to B2, for which the binding entry in assay [2], in assay [3] and in assay [4] was “binds” in each case.
